System: Sprague-Dawley rats
Assay: Rat object recognition (OR) task after subchronic PCP
Format: in vivo
Details: rat novel object recognition, mean ± SEM
[1] = PCP/10Vor group (subPCP + 10 mg/kg vortioxetine)

| SMILES | Total exploration time, Testing Trial (PCP/Veh group) | Total exploration time, Training Trial (PCP/Veh group) | Total exploration time, Testing Trial [1] | Total exploration time, Training Trial [1] |
| --- | --- | --- | --- | --- |
| Cl.c1ccc(C2(N3CCCCC3)CCCCC2)cc1 [PCP, 1-(1-phenylcyclohexyl)-piperidine hydrochloride] | 33.8 ± 5 s | 34.6 ± 2.8 s |  |  |
| Cc1ccc(Sc2ccccc2N2CCNCC2)c(C)c1 [vortioxetine] |  |  | 30 ± 3.2 s | 34.1 ± 2.8 s |

— paper PMC5845537 (Frontiers in Pharmacology, 2018)
